± gives the uncertainty stated by the source. Many of these values have a large error.
Assay: self-splicing fitness, log relative to wild type (ln ratio); higher = more splicing; Tetrahymena group I intron in knt gene, E. coli kanamycin selection, DiMSum; sequences stand for … in CUCUCU…GGAGGGAAAAGUUAUCAGGCAUGCACCUGGUAGCUAGUCUUUAAACCAAUAGAUUGCAUCGGUUUAAAAGGCAAGACCGUCAAAUUGCGGGAAAGGGGUCAACAGCCGUUCAGUACCAAGUCUCAGGGGAAACUUUGAGAUGGCCUUGCAAAGGGUAUGGUAAUAAGCUGACGGACAUGGUCCUAACCACGCAGCCAAGUCCUAAGUCAACAGAUCUUCUGUUGAUAUGGAUGCAGUUCACAGACUAAAUGUCGGUCGGGGAAGAUGUAUUCUUCUCAUAAGAUAUAGUCGGACCUCUCCUUAAUGGGAGCUAGCGGAUGAAGUGAUGCAACACUGGAGCCGCUGGGAACUAAUUUGUAUGCGAAAGUAUAUUGAUUAGUUUUGGAGUACUCGUGGUCG
Procedure, shortened: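 Six replicate transformations of E. coli BL21(DE3) with a pET-22b(+) library were grown overnight at 37°C or 30°C. The library randomised all eight P1ex-region intron nucleotides, the intron lying in the knt kanamycin-resistance gene, and plates were LB agar with or without 25 μg/mL kanamycin plus 100 μg/mL carbenicillin, 50 μM IPTG and 0.2% rhamnose. Pooled colonies were amplicon-sequenced on an Illumina HiSeq 2500, and fitness is the DiMSum error-weighted combination of wild-type-normalised replicate fold changes, kanamycin versus none.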

Row | Sequence | self-splicing fitness (ln) (30 °C) | self-splicing fitness (ln) (37 °C)
1 | GCGGAGCAAUAUUACGCCAU | -2.65 ± 1.1 | 
2 | UGCGAGCAAUAUUACGGAGG | -3.52 ± 1.1 | 
3 | UCUUAGCAAUAUUACGAGGC |  | -2.98 ± 1.1
4 | AUGGAGCAAUAUUACGAUUA |  | -3.21 ± 0.75
5 | CAAUAGCAAUAUUACGGUUC |  | -2.05 ± 0.8
6 | CGGAAGCAAUAUUACGUCAA | -2.75 ± 0.54 | -3.55 ± 0.42
7 | UUAUAGCAAUAUUACGAUAU | -1.97 ± 0.13 | -0.578 ± 0.17
8 | CUGGAGCAAUAUUACGUAAU |  | -0.797 ± 0.56
9 | UGGCAGCAAUAUUACGCGCU | -4.11 ± 0.61 | 
10 | CACAAGCAAUAUUACGAUUU | -4.17 ± 0.18 | -2.56 ± 0.15
11 | CAGGAGCAAUAUUACGCAUU | -3.04 ± 0.62 | 
12 | CGUAAGCAAUAUUACGAGAC |  | -3.67 ± 1
13 | GCGUAGCAAUAUUACGCGCA | -2.16 ± 0.66 | 
14 | UAUUAGCAAUAUUACGUUCU | -2.64 ± 0.24 | -1.19 ± 0.17
15 | AGGGAGCAAUAUUACGUCCC | -1.52 ± 0.71 | 0.218 ± 0.61
16 | CUGUAGCAAUAUUACGCUGG | -2.84 ± 0.75 | 
17 | UUCCAGCAAUAUUACGAUCC |  | -1.69 ± 1.2
18 | UCUAAGCAAUAUUACGGAGC | -2.17 ± 0.69 | 
19 | UCGGAGCAAUAUUACGUGGC | -3.51 ± 0.73 | 

Row | Sequence | self-splicing fitness (ln) (30 °C) | self-splicing fitness (ln) (37 °C)
20 | UCGCAGCAAUAUUACGAGAU | -3.01 ± 0.25 | -1.86 ± 0.25
21 | UCGGAGCAAUAUUACGCAAG | -3.24 ± 0.62 | -2.23 ± 0.43
22 | GUUAAGCAAUAUUACGAAGG | -2.17 ± 0.18 | -1.87 ± 0.28
23 | AAAGAGCAAUAUUACGAGCC |  | -1.11 ± 0.73
24 | UGGAAGCAAUAUUACGAGCC | -3.08 ± 0.62 | -1.72 ± 0.68
25 | CAUGAGCAAUAUUACGCGGG | -1.45 ± 0.14 | -2.46 ± 0.28
26 | GCACAGCAAUAUUACGCCAC | -4.26 ± 1 | 
27 | UCUUAGCAAUAUUACGAACC | -3.04 ± 0.68 | -1.39 ± 0.87
28 | GUUGAGCAAUAUUACGUCGU | -3.25 ± 0.39 | -1.5 ± 0.55
29 | CGCUAGCAAUAUUACGGAGA | -3.33 ± 0.61 | -2.2 ± 0.36
30 | GACUAGCAAUAUUACGAAAU | -1.07 ± 0.16 | 0.651 ± 0.26
31 | GAACAGCAAUAUUACGUUUG | -2.2 ± 0.067 | -0.632 ± 0.075
32 | CUCAAGCAAUAUUACGAGCC | -4.27 ± 0.52 | 
33 | CCCGAGCAAUAUUACGAGUA | -3.01 ± 0.16 | -2.37 ± 0.14
34 | CCGAAGCAAUAUUACGCUUA | -1.32 ± 1.4 | -3.83 ± 1
35 | GGAAAGCAAUAUUACGAGAA | -2.96 ± 0.65 | -1.29 ± 0.27
36 | CUGUAGCAAUAUUACGCUAA | -2.84 ± 0.75 | -1.93 ± 0.51
37 | CGCGAGCAAUAUUACGUGAC | -5.44 ± 0.58 | 
38 | GUCGAGCAAUAUUACGGCGG | -3.18 ± 0.68 | 

Record cards, from the list above.
CGCGAGCAAUAUUACGUGAC as listed: self-splicing fitness (ln) (30 °C): -5.44 ± 0.58
CUCAAGCAAUAUUACGAGCC as listed: self-splicing fitness (ln) (30 °C): -4.27 ± 0.52
UCGCAGCAAUAUUACGAGAU as listed: self-splicing fitness (ln) (30 °C): -3.01 ± 0.25; self-splicing fitness (ln) (37 °C): -1.86 ± 0.25
UCUUAGCAAUAUUACGAACC as listed: self-splicing fitness (ln) (30 °C): -3.04 ± 0.68; self-splicing fitness (ln) (37 °C): -1.39 ± 0.87

Following part

Row | Sequence | self-splicing fitness (ln) (30 °C) | self-splicing fitness (ln) (37 °C)
39 | AGGGAGCAAUAUUACGCCUG | -1.96 ± 1.2 | -0.147 ± 0.93
40 | UGGGAGCAAUAUUACGAGCC |  | -1.98 ± 1.1
41 | UUCAAGCAAUAUUACGUAGG | -1.53 ± 0.08 | -0.995 ± 0.13
42 | ACCGAGCAAUAUUACGCGCG | -4.42 ± 0.72 | -3.01 ± 0.63
43 | CUAAAGCAAUAUUACGAACC | -4.49 ± 1 | -0.845 ± 0.92
44 | CUCAAGCAAUAUUACGAAUC | -4.37 ± 0.72 | 
45 | AACAAGCAAUAUUACGUUAC | -3.54 ± 0.11 | -3.01 ± 0.18
46 | UGCGAGCAAUAUUACGAGAA |  | -1.9 ± 0.66
47 | UUUGAGCAAUAUUACGCCCA | -0.167 ± 1.2 | -2.47 ± 1.1
48 | GAAUAGCAAUAUUACGGUUG | -1.27 ± 0.092 | -0.561 ± 0.13
49 | CUAGAGCAAUAUUACGCCCC | -3.72 ± 1 | 
50 | GUCUAGCAAUAUUACGCGGC | -3.99 ± 0.54 | 
51 | UUGUAGCAAUAUUACGCAAU |  | -3.58 ± 0.6
52 | CGGCAGCAAUAUUACGUCGC | -3.6 ± 1 | 
53 | CAGUAGCAAUAUUACGGUGA | -4.04 ± 0.31 | -2.58 ± 0.24
54 | UGGAAGCAAUAUUACGGUCC | -2.67 ± 0.15 | -1.51 ± 0.14
55 | GUUGAGCAAUAUUACGUGCU |  | -1.9 ± 0.68
56 | UUUGAGCAAUAUUACGCGGC | -1.16 ± 0.56 | -0.278 ± 0.93

— the supplement of paper PMC7877785
